Tested on: RPMI-8226 cells
Experiment: Gene expression profiling, NanoString nCounter PanCancer Pathways Panel, ROSALIND analysis
Type: cell-based, human
Conditions: RPMI-8226, TCH-165 10 μM, 4 h
Method: RPMI-8226 cells were treated with vehicle or TCH-165 (10 μM) for 4 h. Total RNA was obtained using the mirVana miRNA Isolation Kit, with phenol (Thermofisher Scientific; AM1560; Waltham, MA, USA). Total RNA was quantified by Qubit (Thermofisher Scientific; Q32855; Waltham, MA, USA). and gene expression was evaluated against the nCounter® PanCancer Pathways Panel^TM according to the standard NanoString protocol.
Data were analyzed by ROSALIND® [36] with a hyperscale architecture developed by ROSALIND, Inc. (San Diego, CA, USA). Normalization, fold changes and p-values were calculated using criteria provided by NanoString. ROSALIND follows the nCounter® Advanced Analysis protocol of dividing counts within a lane by the geometric mean of the normalizer probes from the same lane. Housekeeping probes to be used for normalization are selected based on the geNorm algorithm, as implemented in the NormqPCR R library. Fold changes and p-values are calculated using the fast method as described in the nCounter Advanced Analysis 2.0 User Manual. The p-value adjustment is performed using the Benjamini–Hochberg method of estimating false discovery rates (FDR). Clustering of genes for the final heatmap of differentially expressed genes was done using the PAM (Partitioning Around Medoids) method using the fpc R library. Hypergeometric distribution was used to analyze the enrichment of pathways, gene ontology, domain structure and other ontologies. The topGO R library was used to determine local similarities and dependencies between GO terms in order to perform Elim pruning correction. Several database sources were referenced for enrichment analysis, including Interpro [40], NCBI [41], MSigDB [42, 43], REACTOME [44], WikiPathways. Enrichment was calculated relative to a set of background genes relevant to the experiment.

[1] = of 730 detected genes, 1.5-fold change, p-adjusted <0.05

## CCOC(=O)[C@]1(c2ccccc2)N=C(c2ccc(OC)cc2)N(Cc2ccccc2)[C@@H]1c1ccc(NCc2ccccc2)cc1 [TCH-165]
ROSALIND gene set enrichment
  directed significance score, JAK-STAT pathway: −3.59
  directed significance score, Wnt pathway: -3.6
  directed significance score, transcriptional misregulation pathway: −9.6
[1]
  number of genes significantly downregulated: 16
  number of genes significantly upregulated: 32
